Source: the supplement of paper PMC8728848
The other results are listed elsewhere or left out.

What was measured:
Test in all cases: glycan array binding signal (z-score within array); higher = stronger binding
Conditions in all cases: glycan notation: IUPAC condensed, linker removed
[1] = target: Man(a1-2)Man(a1-3)[Man(a1-2)Man(a1-6)]Man(a1-6)[Man(a1-2)Man(a1-2)Man(a1-3)]Man(b1-4)GlcNAc(b1-4)GlcNAc
Method in brief: (§1)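 Glycan array binding is given as a within-array Z-score, which can be read as non-binding when negative. The arrays, 3228 of them, came from the Consortium for Functional Glycomics database and were retained only where the protein sequence was available. Z-scores were averaged across arrays of the same protein sequence at different concentrations or buffers and across linkers.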

[2] = target: Man(a1-2)Man(a1-3)[Man(a1-6)]Man(a1-6)[Man(a1-2)Man(a1-3)]Man(b1-4)GlcNAc(b1-4)GlcNAc
Method in brief: as §1

[3] = target: Man(a1-2)Man(a1-6)[Man(a1-3)]Man(a1-6)[Man(a1-2)Man(a1-2)Man(a1-3)]Man
Method in brief: as §1

[4] = target: Man(a1-2)Man(a1-6)[Man(a1-3)]Man(a1-6)[Man(a1-2)Man(a1-2)Man(a1-3)]Man(b1-4)GlcNAc(b1-4)GlcNAc
Method in brief: as §1

Man(a1-3)[Man(a1-6)]Man = target: Man(a1-3)[Man(a1-6)]Man
Method in brief: as §1

[5] = target: Man(a1-3)[Man(a1-6)]Man(a1-6)[Man(a1-2)Man(a1-3)]Man(b1-4)GlcNAc(b1-4)GlcNAc
Method in brief: as §1

[6] = target: Man(a1-3)[Man(a1-6)]Man(a1-6)[Man(a1-3)]Man
Method in brief: as §1

[7] = target: Man(a1-3)[Man(a1-6)]Man(a1-6)[Man(a1-3)]Man(b1-4)GlcNAc(b1-4)GlcNAc
Method in brief: as §1

[8] = target: Man(a1-3)[Man(a1-6)]Man(b1-4)GlcNAc(b1-4)GlcNAc
Method in brief: as §1

[9] = target: Man(a1-3)[Man(a1-6)]Man(b1-4)GlcNAc(b1-4)[Fuc(a1-6)]GlcNAc
Method in brief: as §1

Man(a1-6)Man = target: Man(a1-6)Man
Method in brief: as §1

Man(b1-4)GlcNAc = target: Man(b1-4)GlcNAc
Method in brief: as §1

Neu5Ac(a2-3)Gal = target: Neu5Ac(a2-3)Gal
Method in brief: as §1

[10] = target: Neu5Ac(a2-3)Gal(b1-3)GalNAc
Method in brief: as §1

[11] = target: Neu5Ac(a2-3)Gal(b1-3)GalNAc(b1-3)Gal(a1-4)Gal(b1-4)Glc
Method in brief: as §1

[12] = target: Neu5Ac(a2-3)Gal(b1-3)GalNAc(b1-4)[Neu5Ac(a2-3)]Gal(b1-4)Glc
Method in brief: as §1

[13] = target: Neu5Ac(a2-3)Gal(b1-3)GalNAc(b1-4)[Neu5Ac(a2-8)Neu5Ac(a2-3)]Gal(b1-4)Glc
Method in brief: as §1

[14] = target: Neu5Ac(a2-3)Gal(b1-3)GalNAc6S
Method in brief: as §1

[15] = target: Neu5Ac(a2-3)Gal(b1-3)GlcNAc
Method in brief: as §1

[16] = target: Neu5Ac(a2-3)Gal(b1-3)GlcNAc(b1-2)Man(a1-3)[GlcNAc(b1-4)][Neu5Ac(a2-3)Gal(b1-3)GlcNAc(b1-2)Man(a1-6)]Man(b1-4)GlcNAc(b1-4)GlcNAc
Method in brief: as §1

[17] = target: Neu5Ac(a2-3)Gal(b1-3)GlcNAc(b1-3)Gal(b1-3)GlcNAc
Method in brief: as §1

[18] = target: Neu5Ac(a2-3)Gal(b1-3)GlcNAc(b1-3)Gal(b1-4)GlcNAc
Method in brief: as §1

[19] = target: Neu5Ac(a2-3)Gal(b1-3)GlcNAc(b1-3)GalNAc
Method in brief: as §1

[20] = target: Neu5Ac(a2-3)Gal(b1-3)GlcNAc(b1-6)GalNAc
Method in brief: as §1

[21] = target: Neu5Ac(a2-3)Gal(b1-3)GlcNAc6S
Method in brief: as §1

[22] = target: Neu5Ac(a2-3)Gal(b1-3)[Fuc(a1-4)]GlcNAc
Method in brief: as §1

[23] = target: Neu5Ac(a2-3)Gal(b1-3)[Fuc(a1-4)]GlcNAc(b1-3)Gal(b1-3)[Fuc(a1-4)]GlcNAc
Method in brief: as §1

[24] = target: Neu5Ac(a2-3)Gal(b1-3)[Fuc(a1-4)]GlcNAc(b1-3)Gal(b1-4)[Fuc(a1-3)]GlcNAc
Method in brief: as §1

[25] = target: Neu5Ac(a2-3)Gal(b1-3)[Neu5Ac(a2-3)Gal(b1-4)]GlcNAc
Method in brief: as §1

[26] = target: Neu5Ac(a2-3)Gal(b1-3)[Neu5Ac(a2-6)]GalNAc
Method in brief: as §1

[27] = target: Neu5Ac(a2-3)Gal(b1-3)[Neu5Ac(a2-6)]GlcNAc(b1-3)[Fuc(a1-3)[Gal(b1-4)]GlcNAc(b1-6)]Gal(b1-4)Glc
Method in brief: as §1

Neu5Ac(a2-3)Gal(b1-4)Glc = target: Neu5Ac(a2-3)Gal(b1-4)Glc
Method in brief: as §1

[28] = target: Neu5Ac(a2-3)Gal(b1-4)GlcNAc
Method in brief: as §1

[29] = target: Neu5Ac(a2-3)Gal(b1-4)GlcNAc(b1-2)Man
Method in brief: as §1

[30] = target: Neu5Ac(a2-3)Gal(b1-4)GlcNAc(b1-2)Man(a1-3)[GlcNAc(b1-2)Man(b1-4)GlcNAc(b1-2)Man(a1-6)]Man(b1-4)GlcNAc(b1-4)GlcNAc
Method in brief: as §1

[31] = target: Neu5Ac(a2-3)Gal(b1-4)GlcNAc(b1-2)Man(a1-3)[Neu5Ac(a2-3)Gal(b1-4)GlcNAc(b1-2)Man(a1-6)]Man(b1-4)GlcNAc(b1-4)[Fuc(a1-6)]GlcNAc
Method in brief: as §1

[32] = target: Neu5Ac(a2-3)Gal(b1-4)GlcNAc(b1-2)Man(a1-3)[Neu5Ac(a2-6)Gal(b1-4)GlcNAc(b1-2)Man(a1-6)]Man(b1-4)GlcNAc(b1-4)GlcNAc
Method in brief: as §1

[33] = target: Neu5Ac(a2-3)Gal(b1-4)GlcNAc(b1-2)[Neu5Ac(a2-3)Gal(b1-4)GlcNAc(b1-6)]Man(a1-6)[Neu5Ac(a2-3)Gal(b1-4)GlcNAc(b1-2)Man(a1-3)]Man(b1-4)GlcNAc(b1-4)GlcNAc
Method in brief: as §1

[34] = target: Neu5Ac(a2-3)Gal(b1-4)GlcNAc(b1-3)Gal
Method in brief: as §1

[35] = target: Neu5Ac(a2-3)Gal(b1-4)GlcNAc(b1-3)Gal(b1-3)GlcNAc
Method in brief: as §1

[36] = target: Neu5Ac(a2-3)Gal(b1-4)GlcNAc(b1-3)Gal(b1-4)GlcNAc
Method in brief: as §1

[37] = target: Neu5Ac(a2-3)Gal(b1-4)GlcNAc(b1-3)Gal(b1-4)GlcNAc(b1-3)Gal(b1-4)GlcNAc
Method in brief: as §1

[38] = target: Neu5Ac(a2-3)Gal(b1-4)GlcNAc(b1-3)Gal(b1-4)[Fuc(a1-3)]GlcNAc
Method in brief: as §1

[39] = target: Neu5Ac(a2-3)Gal(b1-4)GlcNAc(b1-3)GalNAc
Method in brief: as §1

[40] = target: Neu5Ac(a2-3)Gal(b1-4)GlcNAc(b1-3)[Neu5Ac(a2-3)Gal(b1-4)GlcNAc(b1-6)]GalNAc
Method in brief: as §1

B1: Latrophilin-3 (Homo sapiens), Q9HAR2 (protein)
chain: MWPSQLLIFMMLLAPIIHAFSRAPIPMAVVRRELSCESYPIELRCPGTDVIMIESANYGRTDDKICDSDPAQMENIRCYLPDAYKIMSQRCNNRTQCAVVAGPDVFPDPCPGTYKYLEVQYECVPYKVEQKVFLCPGLLKGVYQSEHLFESDHQSGAWCKDPLQASDKIYYMPWTPYRTDTLTEYSSKDDFIAGRPTTTYKLPHRVDGTGFVVYDGALFFNKERTRNIVKFDLRTRIKSGEAIIANANYHDTSPYRWGGKSDIDLAVDENGLWVIYATEQNNGKIVISQLNPYTLRIEGTWDTAYDKRSASNAFMICGILYVVKSVYEDDDNEATGNKIDYIYNTDQSKDSLVDVPFPNSYQYIAAVDYNPRDNLLYVWNNYHVVKYSLDFGPLDSRSGQAHHGQVSYISPPIHLDSELERPSVKDISTTGPLGMGSTTTSTTLRTTTLSPGRSTTPSVSGRRNRSTSTPSPAVEVLDDMTTHLPSASSQIPALEESCEAVEAREIMWFKTRQGQIAKQPCPAGTIGVSTYLCLAPDGIWDPQGPDLSNCSSPWVNHITQKLKSGETAANIARELAEQTRNHLNAGDITYSVRAMDQLVGLLDVQLRNLTPGGKDSAARSLNKAMVETVNNLLQPQALNAWRDLTTSDQLRAATMLLHTVEESAFVLADNLLKTDIVRENTDNIKLEVARLSTEGNLEDLKFPENMGHGSTIQLSANTLKQNGRNGEIRVAFVLYNNLGPYLSTENASMKLGTEALSTNHSVIVNSPVITAAINKEFSNKVYLADPVVFTVKHIKQSEENFNPNCSFWSYSKRTMTGYWSTQGCRLLTTNKTHTTCSCNHLTNFAVLMAHVEVKHSDAVHDLLLDVITWVGILLSLVCLLICIFTFCFFRGLQSDRNTIHKNLCISLFVAELLFLIGINRTDQPIACAVFAALLHFFFLAAFTWMFLEGVQLYIMLVEVFESEHSRRKYFYLVGYGMPALIVAVSAAVDYRSYGTDKVCWLRLDTYFIWSFIGPATLIIMLNVIFLGIALYKMFHHTAILKPESGCLDNIKSWVIGAIALLCLLGLTWAFGLMYINESTVIMAYLFTIFNSLQGMFIFIFHCVLQKKVRKEYGKCLRTHCCSGKSTESSIGSGKTSGSRTPGRYSTGSQSRIRRMWNDTVRKQSESSFITGDINSSASLNREGLLNNARDTSVMDTLPLNGNHGNSYSIASGEYLSNCVQIIDRGYNHNETALEKKILKELTSNYIPSYLNNHERSSEQNRNLMNKLVNNLGSGREDDAIVLDDATSFNHEESLGLELIHEESDAPLLPPRVYSTENHQPHHYTRRRIPQDHSESFFPLLTNEHTEDLQSPHRDSLYTSMPTLAGVAATESVTTSTQTEPPPAKCGDAEDVYYKSMPNLGSRNHVHQLHTYYQLGRGSSDGFIVPPNKDGTPPEGSSKGPAHLVTSL
- glycan array binding signal (z-score) [1]: 1.12
- glycan array binding signal (z-score) [2]: 2.59
- glycan array binding signal (z-score) [3]: 0.474
- glycan array binding signal (z-score) [4]: -1.18
- glycan array binding signal (z-score) (Man(a1-3)[Man(a1-6)]Man): 0.197
- glycan array binding signal (z-score) [5]: -0.495
- glycan array binding signal (z-score) [6]: -0.752
- glycan array binding signal (z-score) [7]: -0.939
- glycan array binding signal (z-score) [8]: -1.18
- glycan array binding signal (z-score) [9]: -0.069
- glycan array binding signal (z-score) (Man(a1-6)Man): -1.15
- glycan array binding signal (z-score) (Man(b1-4)GlcNAc): -0.134
- glycan array binding signal (z-score) (Neu5Ac(a2-3)Gal): -0.858
- glycan array binding signal (z-score) [10]: 0.078
- glycan array binding signal (z-score) [11]: 0.165
- glycan array binding signal (z-score) [12]: -0.585
- glycan array binding signal (z-score) [13]: -0.226
- glycan array binding signal (z-score) [14]: 0.148
- glycan array binding signal (z-score) [15]: 0.549
- glycan array binding signal (z-score) [16]: -0.668
- glycan array binding signal (z-score) [17]: -1.16
- glycan array binding signal (z-score) [18]: 0.349
- glycan array binding signal (z-score) [19]: -0.376
- glycan array binding signal (z-score) [20]: -0.588
- glycan array binding signal (z-score) [21]: -0.509
- glycan array binding signal (z-score) [22]: -0.042
- glycan array binding signal (z-score) [23]: 6.27
- glycan array binding signal (z-score) [24]: -0.352
- glycan array binding signal (z-score) [25]: -0.731
- glycan array binding signal (z-score) [26]: 0.232
- glycan array binding signal (z-score) [27]: -0.442
- glycan array binding signal (z-score) (Neu5Ac(a2-3)Gal(b1-4)Glc): -0.511
- glycan array binding signal (z-score) [28]: 0.302
- glycan array binding signal (z-score) [29]: -0.747
- glycan array binding signal (z-score) [30]: 0.035
- glycan array binding signal (z-score) [31]: 0.562
- glycan array binding signal (z-score) [32]: -0.287
- glycan array binding signal (z-score) [33]: 0.262
- glycan array binding signal (z-score) [34]: -1.21
- glycan array binding signal (z-score) [35]: 0.415
- glycan array binding signal (z-score) [36]: -0.549
- glycan array binding signal (z-score) [37]: -1.1
- glycan array binding signal (z-score) [38]: 0.751
- glycan array binding signal (z-score) [39]: 0.708
- glycan array binding signal (z-score) [40]: 1.37
